# Data as given in patent US20040067991A1, “Tetrahydrobenzothiazole analogues as neuroprotective agents” (priority 2003, published 2004).
# Some of these results come from one statement about several compounds together. At least one structure is not confirmed: it was looked up by name or label, or the drawing left a doubt. Some compounds share one range, which may span the group rather than tell each member.
# Tested on: rat hippocampal neurons
# Experiment: Neuronal survival assay in cultured hippocampal neurons treated with camptothecin or etoposide
# Assay type: cell-based
# Conditions: 100 nM
# Experimental: 2-amino-4,5,6,7-tetrahydrobenzothiazole hydrogen and 1-(4-methylphenyl)-2-(4,5,6,7-tetrahydro-2-imino-3(2H)-benzothiazolyl)-ethanone hydrobromide and their analogues were assessed for their ability to protect rat hippocampal cells in culture from camptothecin ([…]).
# Dissociated hippocampal cell cultures were established from embryonic day 18 Sprague-Dawley rats (Harlan, Inc.) as described previously. […] 77:220-28. Cells were grown in polyethyleneimine-coated plastic dishes or 22 m^2 glass coverslips, and incubated in Neurobasal medium containing B27 supplements, 2 mM L-glutamine, 25 mg/ml gentamycin, 1 mM Hepes (Gibco BRL) and 0.001% gentamicin sulfate. All experiments were performed using 9-10 day-old cultures. Camptothecin and etoposide (Signia) were prepared as 500× stocks in DMSO. Neuron survival was quantified by established methods. […] Briefly, viable neurons in premarked fields (10× objective) were counted before experimental treatment and at specified time points thereafter. Neurons with intact neurites of uniform diameter and soma with a smooth round appearance were considered viable. In contrast neurons with fragmented neurites and vacuolated soma were considered non-viable.
row,Compound,toxicity when only the analogues were put in the cell
1,"Br.CCC(=O)Cn1c2c(sc1=N)CCCC2 [Compound 1, 1-(4.5,6,7-tertahydro-2-imino-3(2H)-benzothiazolyl)-2-butanone Hydrobromide]","none of compounds 14, 1, 15, 5×, 6-11, 13, 16 were toxic"
2,"Br.COc1ccc(C(=O)Cn2c3c(sc2=N)CCCC3)cc1 [Compound 6, 1-(4-methoxylphenyl)-2-(4,5,6,7-tertahydro-2-imino-3(2H)-benzothiazolyl)-ethanone hydrobromide]","none of compounds 14, 1, 15, 5×, 6-11, 13, 16 were toxic"
3,"Br.COc1cccc(C(=O)Cn2c3c(sc2=N)CCCC3)c1 [Compound 8, 1-(3-methoxylphenyl)-2-(4,5,6,7-tertahydro-2-imino-3(2H)-benzothiazolyl)-ethanone hydrobromide]","none of compounds 14, 1, 15, 5×, 6-11, 13, 16 were toxic"
4,"Br.N=c1sc2c(n1CC(=O)c1ccc(Cl)cc1)CCCC2 [Compound 9, 1-(4-chlorophenyl)-2-(4,5,6,7-tertahydro-2-imino-3(2H)-benzothiazolyl)ethanone hydrobromide]","none of compounds 14, 1, 15, 5×, 6-11, 13, 16 were toxic"
5,"Br.N=c1sc2c(n1CC(=O)c1ccc([N+](=O)[O-])cc1)CCCC2 [Compound 11, 1-(4-nitrophenyl)-2-(4,5,6,7-tertahydro-2-imino-3(2H)-benzothiazolyl)ethanone hydrobromide]","none of compounds 14, 1, 15, 5×, 6-11, 13, 16 were toxic"
